The target in this assay is SNRPD2 (PD2) (human) (UniProt P62316). Description: co-IP; independent IP assay in HCCLM3 cells; bait and antibody not told in the text shown.

Sequences of proteins named here, by UniProt entry; tags and fusion partners are left off.
UniProt P62316: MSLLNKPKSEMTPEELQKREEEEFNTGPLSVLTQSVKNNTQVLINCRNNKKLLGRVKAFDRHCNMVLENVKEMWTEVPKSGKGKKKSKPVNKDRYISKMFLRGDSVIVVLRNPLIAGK

One molecule from publication PMC11425265 can be followed below.

Results are given in words; binding and its absence hold for the method and conditions named. Binding seen in cells or lysates may run through a third protein. Some results given as binding are weak or reduced against the parent protein; the word gives no strength.

B1: HNRNPL (PL) (protein, UniProt P14866 1-589)
chain: MSRRLLPRAEKRRRRLEQRQQPDEQRRRSGAMVKMAAAGGGGGGGRYYGGGSEGGRAPKRLKTDNAGDQHGGGGGGGGGAGAAGGGGGGENYDDPHKTPASPVVHIRGLIDGVVEADLVEALQEFGPISYVVVMPKKRQALVEFEDVLGACNAVNYAADNQIYIAGHPAFVNYSTSQKISRPGDSDDSRSVNSVLLFTILNPIYSITTDVLYTICNPCGPVQRIVIFRKNGVQAMVEFDSVQSAQRAKASLNGADIYSGCCTLKIEYAKPTRLNVFKNDQDTWDYTNPNLSGQGDPGSNPNKRQRQPPLLGDHPAEYGGPHGGYHSHYHDEGYGPPPPHYEGRRMGPPVGGHRRGPSRYGPQYGHPPPPPPPPEYGPHADSPVLMVYGLDQSKMNCDRVFNVFCLYGNVEKVKFMKSKPGAAMVEMADGYAVDRAITHLNNNFMFGQKLNVCVSKQPAIMPGQSYGLEDGSCSYKDFSESRNNRFSTPEQAAKNRIQHPSNVLHFFNAPLEVTEENFFEICDELGVKRPSSVKVFSGKSERSSSGLLEWESKSDALETLGFLNHYQMKNPNGPYPYTLKLCFSTAQHAS
For B1, the binding result was “binds”.
